Values joined by “and” are separate entries in the source; they are usually repeats but may differ in a detail not shown here. Equal entries are not always repeated. Structures can show the parent of a compound that is named as a salt. ± gives the standard deviation of the averaged measurements. The list shows a part of the results. Single values are uncertain, as repeats are few or missing.
System: RAW 264.7
Assay: cell viability (MTT) relative to vehicle control; higher = more viable cells
Details: stimulus: HMGB1 5 ug/ml, 18 h
[1] = compound concentration: 1 ug/ml

Structure (SMILES)	cell viability (compound concentration: 3 uM)	cell viability [1] [%]
OCC1OC(n2cnc3c(NC4CCCCC4)ncnc32)C(O)C1O (stereo unspecified) [N6-Cyclohexyladenosine]	111%	
O=C(O)/C=C/c1ccc(O)c(O)c1 [Caffeic Acid]	86.9%	
O=C(O)/C=C/c1ccc(O)c(O)c1 [Caffeic acid]	128%	91
Clc1ccc(Cn2c(CN3CCCC3)nc3ccccc32)cc1	109%	
Clc1ccc(Cn2c(CN3CCCC3)nc3ccccc32)cc1 [Clemizole hydrochloride]	108 ± 1.4%	
COc1cc2nc(N(C)CCCNC(=O)C3CCCO3)nc(N)c2cc1OC (stereo unspecified)	98.7% and 103%	
COc1cc2nc(N(C)CCCNC(=O)C3CCCO3)nc(N)c2cc1OC (stereo unspecified) [Alfuzosin hydrochloride]	93.9 ± 3%	
CN1C[C@H](O)[C@@H](O)[C@H](O)[C@H]1CO [N-Methyl-1-deoxynojirimycin]	107%	
N=C(N)NC(=O)Cc1c(Cl)cccc1Cl	109%	
N=C(N)NC(=O)Cc1c(Cl)cccc1Cl [Guanfacine hydrochloride]	102 ± 10%	
N=C(N)NC(=O)Cc1c(Cl)cccc1Cl [Guanfacine]	84.2%	
N[C@@H](Cc1cc(I)c(Oc2cc(I)c(O)c(I)c2)c(I)c1)C(=O)O [L-Thyroxine sodium salt hydrate]		93.7
N[C@@H](Cc1cc(I)c(Oc2cc(I)c(O)c(I)c2)c(I)c1)C(=O)O [L-thyroxine]	98.4%	
C=C1C[C@@]23CC[C@H]4[C@@](C)(CCC[C@@]4(C)C(=O)O)[C@@H]2CC[C@]1(O)C3 [Steviol]	121%	
O=c1cnn([C@@H]2O[C@H](CO)[C@@H](O)[C@H]2O)c(=O)[nH]1	87.1%	
O=c1cnn([C@@H]2O[C@H](CO)[C@@H](O)[C@H]2O)c(=O)[nH]1 [6-Azauridine]		93.1
O=C(OC[C@H]1O[C@@H](n2ccc(=O)[nH]c2=O)[C@H](OC(=O)c2ccccc2)[C@@H]1OC(=O)c1ccccc1)c1ccccc1 [2',3',5'-Tri-O-benzoyluridine]		99
OC[C@H]1O[C@@H](Oc2ccc3cc(Br)ccc3c2)[C@H](O)[C@@H](O)[C@H]1O [6-Bromo-2-naphthyl-beta-D-galactopyranoside]		103
CC(=O)O[C@@]12CO[C@@H]1C[C@H](O)[C@@]1(C)C(=O)[C@H](O)C3=C(C)[C@@H](OC(=O)[C@H](O)[C@@H](NC(=O)OC(C)(C)C)c4ccccc4)C[C@@](O)([C@@H](OC(=O)c4ccccc4)[C@H]21)C3(C)C [Docetaxel]	99.1 ± 5.7%	
CC(=O)O[C@@]12CO[C@@H]1C[C@H](O)[C@@]1(C)C(=O)[C@H](O)C3=C(C)[C@@H](OC(=O)[C@H](O)[C@@H](NC(=O)OC(C)(C)C)c4ccccc4)C[C@@](O)([C@@H](OC(=O)c4ccccc4)[C@H]21)C3(C)C	92.1%	
N[C@H](CO)Cc1cnc[nH]1 [L(-)-Histidinol dihydrochloride]		106
C=CC1=C(C)c2cc3[nH]c(cc4nc(cc5[nH]c(cc1n2)c(C)c5CCC(=O)O)C(CCC(=O)O)=C4C)c(C)c3C=C	64.4%	
C=CC1=C(C)c2cc3[nH]c(cc4nc(cc5[nH]c(cc1n2)c(C)c5CCC(=O)O)C(CCC(=O)O)=C4C)c(C)c3C=C [Protoporphyrin IX disodium]	35.2%	
CN(C)CCN(Cc1ccccc1)c1ccccn1 [Tripelennamine hydrochloride]	102%	
CN(C)CCN(Cc1ccccc1)c1ccccn1	105% and 94.4%	

Record cards, from the list above:
N[C@H](CO)Cc1cnc[nH]1 [L(-)-Histidinol dihydrochloride] as listed: cell viability [1] [%]: 106
COc1cc2nc(N(C)CCCNC(=O)C3CCCO3)nc(N)c2cc1OC (stereo unspecified) [Alfuzosin hydrochloride] as listed: cell viability (compound concentration: 3 uM): 93.9 ± 3%

The listing continues.

Structure (SMILES)	cell viability (compound concentration: 3 uM)	cell viability [1] [%]
CC1CNc2c(cccc2S(=O)(=O)N[C@@H](CCCNC(=N)N)C(=O)N2CC[C@@H](C)C[C@@H]2C(=O)O)C1 (stereo partly specified)	92.8%	
CC1CNc2c(cccc2S(=O)(=O)N[C@@H](CCCNC(=N)N)C(=O)N2CC[C@@H](C)C[C@@H]2C(=O)O)C1 (stereo partly specified) [Argatroban]	104 ± 2.1%	
Nc1ccn([C@@H]2O[C@H](CO)[C@@H](O)C2(F)F)c(=O)n1 [Gemcitabine]	78.3 ± 3.3%	
COc1ccccc1N1CCN(CCN(C(=O)C2CCCCC2)c2ccccn2)CC1	109%	
CN1C(=O)CC(c2ccccc2)C1=O (stereo unspecified) [Phensuximide]	86.6%	
C[n+]1cc2c3c(ccc2c2ccc4cc5c(cc4c21)OCO5)OCO3 [Sanguinarine chloride]	24%	
C[n+]1cc2c3c(ccc2c2ccc4cc5c(cc4c21)OCO5)OCO3	60.2 ± 58%	
Clc1ccc(CSC(Cn2ccnc2)c2ccc(Cl)cc2Cl)cc1 (stereo unspecified) [Sulconazole nitrate]	108%	
Clc1ccc(CSC(Cn2ccnc2)c2ccc(Cl)cc2Cl)cc1 (stereo unspecified)	108%	
Nc1ncnc2c1ncn2[C@@H]1O[C@H](CO)[C@@H](O)[C@H]1O [Adenosine]	105%	
Nc1ncnc2c1ncn2[C@@H]1O[C@H](CO)[C@@H](O)[C@H]1O	103%	
Cc1cccc(-c2cc(=O)c3cc(C)ccc3o2)c1 [3',6-Dimethylflavone]		98
Nc1ncnc2c1[nH]c(=S)n2C1OC(CO)C(O)C1O (stereo unspecified)		91.6
O=c1[nH]c(=S)[nH]c(-c2ccccc2)c1Cc1c(O)ccc2ccccc12 [Cambinol]	97.1%	
CCCN(CCC)S(=O)(=O)c1ccc(C(=O)O)cc1 [Probenecid]	91.1%	
CCCN(CCC)S(=O)(=O)c1ccc(C(=O)O)cc1	98.5%	
C[C@]12CC[C@@H]3c4ccc(O)cc4CC[C@H]3[C@@H]1CC[C@@H]2O [beta-Estradiol]	107%	
C[C@]12CC[C@@H]3c4ccc(O)cc4CC[C@H]3[C@@H]1CC[C@@H]2O [Estradiol]	104%	
C[C@]12CC[C@@H]3c4ccc(O)cc4CC[C@H]3[C@@H]1CC[C@@H]2O [Estradiol-17 beta]	111%	
C[C@]12CC[C@@H]3c4ccc(O)cc4CC[C@H]3[C@@H]1CC[C@@H]2O	108% and 98.8%	
CCSc1ncnc2nc[nH]c12 [6-ethylmercaptopurine]		96.7
CN(C)CCOC(c1ccccc1)c1ccccc1 [Diphenhydramine hydrochloride]	102 ± 5.5%	
CN(C)CCOC(c1ccccc1)c1ccccc1	98.6 ± 0.78%	
CN(C)CCOC(c1ccccc1)c1ccccc1 [Diphenhydramine]	117%	
COc1ccc2[nH]c([S+]([O-])Cc3ncc(C)c(OC)c3C)nc2n1 (stereo unspecified) [Tenatoprazole]	101 ± 10%	

From the supplement of paper PMC3682954
